No constants are given. Whether binding was seen depends on the method and setting. In cells and extracts the contact can be indirect. Some binding calls cover weakened binding; strength is not graded here.
What was measured:
[1] = target: Flag-tagged PAX1 cloned from human cDNA (human) (UniProt P15863); test: co-IP; semiendogenous co-IP in HEK293FT cells transfected with 2 ug Flag-tagged PAX1; with or without CoCl2 (hypoxia mimetic, 14 h), interaction strengthened dose-dependently
[2] = target: Flag-tagged mouse Pax1 (mouse) (UniProt P09084); test: co-IP; HEK293FT cells co-transfected with Myc-tagged FOXO1 and a Flag-tagged Pax protein; lysate immunoprecipitated with anti-Flag M2 affinity resin, immunoblotted; also after CoCl2 (2, 20, 200, 400 umol/L, 14 h), which strengthened the PAX1-FOXO1 interaction
[3] = target: Flag-tagged PAX1 cloned from human cDNA (human) (UniProt P15863); test: as above

Amino acid sequences for entries named in this document (tags omitted).
UniProt P15863: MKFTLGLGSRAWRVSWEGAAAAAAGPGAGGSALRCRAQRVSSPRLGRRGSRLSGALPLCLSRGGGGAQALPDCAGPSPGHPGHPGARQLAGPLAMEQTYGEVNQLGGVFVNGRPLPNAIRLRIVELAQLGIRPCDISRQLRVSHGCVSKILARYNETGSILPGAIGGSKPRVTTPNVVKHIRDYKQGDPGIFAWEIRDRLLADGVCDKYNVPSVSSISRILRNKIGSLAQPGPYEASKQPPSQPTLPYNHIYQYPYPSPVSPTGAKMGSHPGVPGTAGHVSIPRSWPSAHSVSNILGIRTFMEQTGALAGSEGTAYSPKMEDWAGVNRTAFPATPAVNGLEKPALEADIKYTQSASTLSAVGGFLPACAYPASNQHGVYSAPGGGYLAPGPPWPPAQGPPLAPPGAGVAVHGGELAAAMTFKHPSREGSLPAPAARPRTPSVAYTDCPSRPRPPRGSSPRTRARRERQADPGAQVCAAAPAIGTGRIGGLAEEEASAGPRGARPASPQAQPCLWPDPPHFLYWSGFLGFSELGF
UniProt P09084: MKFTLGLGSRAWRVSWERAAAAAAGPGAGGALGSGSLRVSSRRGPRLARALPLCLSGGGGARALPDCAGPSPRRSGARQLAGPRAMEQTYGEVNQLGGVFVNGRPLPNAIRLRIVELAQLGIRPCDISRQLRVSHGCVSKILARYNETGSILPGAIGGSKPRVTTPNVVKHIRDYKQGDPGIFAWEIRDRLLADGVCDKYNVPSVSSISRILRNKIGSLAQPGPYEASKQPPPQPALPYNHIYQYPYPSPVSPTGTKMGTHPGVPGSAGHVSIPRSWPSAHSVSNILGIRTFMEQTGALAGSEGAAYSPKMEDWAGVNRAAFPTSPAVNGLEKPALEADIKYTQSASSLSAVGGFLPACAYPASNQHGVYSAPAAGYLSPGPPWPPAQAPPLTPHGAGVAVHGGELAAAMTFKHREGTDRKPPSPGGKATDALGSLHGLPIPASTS
UniProt Q12778: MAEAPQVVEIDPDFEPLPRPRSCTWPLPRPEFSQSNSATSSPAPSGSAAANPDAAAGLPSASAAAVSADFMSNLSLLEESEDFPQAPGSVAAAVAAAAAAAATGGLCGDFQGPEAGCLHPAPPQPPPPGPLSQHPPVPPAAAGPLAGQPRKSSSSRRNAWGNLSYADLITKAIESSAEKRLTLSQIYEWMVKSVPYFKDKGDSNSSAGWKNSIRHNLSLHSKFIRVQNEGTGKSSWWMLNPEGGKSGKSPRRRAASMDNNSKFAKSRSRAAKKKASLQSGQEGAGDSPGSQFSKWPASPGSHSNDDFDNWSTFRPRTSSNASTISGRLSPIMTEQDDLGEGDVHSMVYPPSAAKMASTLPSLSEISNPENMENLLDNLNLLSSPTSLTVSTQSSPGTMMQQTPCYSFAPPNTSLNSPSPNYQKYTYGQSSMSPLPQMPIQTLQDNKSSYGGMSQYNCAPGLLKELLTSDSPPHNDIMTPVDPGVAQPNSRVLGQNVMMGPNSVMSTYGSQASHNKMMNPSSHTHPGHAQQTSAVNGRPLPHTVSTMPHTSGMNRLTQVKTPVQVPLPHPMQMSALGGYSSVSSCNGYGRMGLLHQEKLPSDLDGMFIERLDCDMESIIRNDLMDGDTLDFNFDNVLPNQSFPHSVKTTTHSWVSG

Substance	binding [1]	binding [2]	binding [3]
FOXO1, endogenous in HEK293FT cells (from UniProt Q12778 1-655)	binds		
Myc-tagged FOXO1 (from UniProt Q12778 1-655)		binds	binds

— paper PMC4147360
